Laboratory results: article PMC7876045

System: RNAP sigma70 holoenzyme (Esigma70) (Escherichia coli)
Test: KMnO4 footprinting
Conditions: +NTP + GreB, bubble reduced but not eliminated; 40 mM Tris-HCl pH 8.0, 1 mM DTT, 0.1 mg/ml BSA, 10 mM MgCl2, 50 mM KCl, 37 C (transcription buffer); 150 nM Esigma70, sample mixed 1:1 with 20 mM KMnO4 for 15 s; recombinant protein; label: 5'-32P on template or non-template strand; probe letters rebuilt from the primers and the genome

Sequence	binding result
ACCTCGGTATGCCTTGTGACTGGCTTGACAAGCTTTTCCTCAGCTCCGTAAACTCCTTTCAGTGGGAAATTGTGGGGCAAAGTGGGAATAAGGGGTGAGGCTGGCATGTTCCGGGGAGCAA (double strand) [mraZ promoter (G1p) permanganate template]	binds
ATCGCCAGCGCGCGATGATGTTCCGAAGACTATAAGGCATGTTATAGTCTGGATTATATTGAGGCAAGTCACCCTCCCATTTATTCAGAGTAAAAGTCTATTCTGTGATAAATGGC (double strand) [minC promoter (G1d) permanganate template]	binds

Construct, isoform or probe ends are uncertain for at least one entry.
